Laboratory results published in patent US7524880B2, “Crystalline form of a substituted pyrrolidine compound” (Theravance, Inc., priority 2004, dated 2009).
Structures can show the parent of a compound that is named as a salt. Some results were stated once for a whole list of compounds, not compound by compound.

Assay: Micronized salt / micronized salt-lactose blend stability assessment (HPLC)
Type: physicochemical
Settings: 3 months, all storage conditions: −20° C. closed, 40° C./75% RH open and closed, 50 C closed

## CNCCCCCCCCN1CC[C@@H](C(C(N)=O)(c2ccccc2)c2ccccc2)C1 [Example 5, 2-[(S)-1-(8-Methylaminooctyl)pyrrolidin-3-yl]-2,2-diphenylacetamide Naphthalene-1,5-disulfonic Acid Salt]
  change in chemical purity (HPLC): less than 0.5%
